These results are taken from publication PMC4195675.

By UniProt entry, the sequences of proteins in these tests, tags left out.
UniProt Q9C035: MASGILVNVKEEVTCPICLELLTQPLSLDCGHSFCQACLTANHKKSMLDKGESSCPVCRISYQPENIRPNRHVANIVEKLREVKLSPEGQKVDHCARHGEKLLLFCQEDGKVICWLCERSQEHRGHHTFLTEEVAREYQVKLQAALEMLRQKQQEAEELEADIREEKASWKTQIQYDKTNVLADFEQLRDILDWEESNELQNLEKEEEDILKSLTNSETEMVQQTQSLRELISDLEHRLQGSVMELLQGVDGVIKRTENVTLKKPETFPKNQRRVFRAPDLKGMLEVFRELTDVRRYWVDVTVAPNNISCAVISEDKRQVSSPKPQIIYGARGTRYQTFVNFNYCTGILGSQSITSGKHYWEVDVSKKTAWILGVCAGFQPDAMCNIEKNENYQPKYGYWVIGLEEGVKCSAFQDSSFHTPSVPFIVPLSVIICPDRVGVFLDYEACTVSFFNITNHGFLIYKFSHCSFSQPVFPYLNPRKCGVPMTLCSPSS
UniProt O15524: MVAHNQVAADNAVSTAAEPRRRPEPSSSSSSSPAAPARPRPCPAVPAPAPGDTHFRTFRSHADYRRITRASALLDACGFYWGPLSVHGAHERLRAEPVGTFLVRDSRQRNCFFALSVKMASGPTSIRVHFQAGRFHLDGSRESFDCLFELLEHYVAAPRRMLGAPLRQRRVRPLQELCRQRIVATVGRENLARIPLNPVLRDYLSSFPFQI

Results are given in words; binding and its absence hold for the method and conditions named. Binding seen in cells or lysates may run through a third protein. Some results given as binding are weak or reduced against the parent protein; the word gives no strength.

The target of the assay is human TRIM5α (HuTRIM5α) (human) (UniProt Q9C035). Briefly: co-IP; SOCS1 with HuTRIM5α; data not shown; cells not given.

With “SOCS1 in the co-immunoprecipitation with HuTRIM5α (from UniProt O15524 1-211)”, the binding result is on record as “binds”.
